## Percent effect of library compounds

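Growth of Mycobacterium tuberculosis over 3 days (7H9 medium with glucose and tyloxapol); the read-out is not stated. Concentration: 500 µM. The record gives no direction; compounds that gave an IC50 in retests scored well above the rest, so higher reads as more growth inhibition. Of about 18,000 compounds tested this way, about 1,400 (7.9%) reached 50% or more in at least one test.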

Each number is a percent effect as filed. How 0% and 100% were set is not recorded. Most values in the screen are low, and negative values occur. The compounds are a random part of those screened.

SMILES	effect
Cc1cc(F)c(Br)cc1NC(=O)C(C)S(C)(=O)=O (centres undefined)	31.01
CC(C)C(C)NC(=O)CS(=O)(=O)Cc1ccccc1 (centres undefined)	34.33
Cn1ccc(C(=O)N2CCOc3ccccc32)cc1=O	13.53
COc1cccc(C2(F)CCNC2)c1 (centres undefined)	11.88
CS(=O)(=O)c1ccc(NC(=O)NCc2ccco2)cn1	35.57
CC(c1ccncn1)N(C)C(=O)Cc1ccccn1 (centres undefined)	-122.9
COc1cccc(C2(F)CCNCC2)c1	36.95
N#Cc1ccc(S(=O)(=O)N2CCNC(=O)C2)cc1	-0.2821
CCOc1ccc(Br)cc1CNc1nn[nH]n1	1.603
Cc1nc(CN2Cc3ccccc3CC2C(N)=O)c[nH]1 (centres undefined)	15.72
CCC(CO)(CO)NCc1csc(-c2cccs2)n1	63.5
CC1CN(CCS(=O)(=O)c2ccccc2)CCO1 (centres undefined)	19.19
CC(C)(C)OC(=O)CNC1CCOCC1	-0.3743
O=C(NCC1CC1)C1CCCN(CC2CC2)C1 (centres undefined)	-4.096
CCOc1cc(C(=O)OCC(=O)NC)cc(Br)c1OC	-22.14
CCOC(=O)C1(C)CCC(=O)NC1 (centres undefined)	4.489
O=C(COC(=O)CN1CCCC1=O)NCc1cccs1	-7.538
CNCCc1ccccc1OC	85.85
CCC[C@H](N)C(=O)NCCc1nc(C)cc(=O)[nH]1	8.692
CC(C)C(NC(=O)c1ccon1)c1nccn1C (centres undefined)	0.5355
CSCCC(OC(=O)c1ccc(F)cc1)C(N)=O (centres undefined)	13.47
COCCN1C(=O)c2ccccc2C1=O	6.552
CC1CN(C(=O)Cc2ccsc2)CCO1 (centres undefined)	18.16
COC(=O)Cn1cnc2c(C)cccc2c1=O	-10.85
CCCn1ncnc1C(C)NC(=O)c1cnccn1 (centres undefined)	11.72
CC(=O)Nc1ccc(CC(=O)Nc2cc(C)on2)cc1	4.348
Cc1nc(C(=O)N2C[C@@H](CO)[C@H](N(C)C)C2)co1	-5.392
CSCc1cc(F)ccc1CNC(=O)[C@H]1CCC(=O)N1	19.05
COc1ccc(NC(=O)C(C)(C)N(C)C)cc1	-5.611
CCC(=O)NCc1ccc(-n2cncn2)nc1	9.839
COCCNCC(=O)Nc1cccc(S(N)(=O)=O)c1	2.489
O=C(Nc1ccc(NC(=O)C2CC2)nc1)NC1CC1	-7.049
CC1CN(C)CCN1C(=O)NCc1ccccc1F (centres undefined)	15.92
N#Cc1c[nH]c(C(=O)NCC2CCCS2)c1 (centres undefined)	3.413
COc1ccc(CC(=O)N(C)C)c(OC)c1OC	-3.92
CC(C)COCC(C)NC(=O)c1ccc2nncn2c1 (centres undefined)	28.68
Cc1ccc(C(=O)Nc2ccncc2F)cn1	21.79
NC(=O)c1cc2c(cc1Br)OCO2	-4.612
CN1CCN(C(=O)CCn2cncn2)CC1	5.2
NC(=O)C1CCCCN1Cc1cn2ccccc2n1 (centres undefined)	5.683
Cn1cc(NC(=O)Nc2ccc(F)cc2)c(C(N)=O)n1	24.9
O=C(CNC1CC1)NC[C@H]1CCc2ccccc2O1	68.44
Cc1ccc(C2CCCN2CCS(C)(=O)=O)s1 (centres undefined)	61.6
OCCNCCNCc1ccc(-c2ccccc2F)o1	62.58
OC(COCc1cccs1)CN1CCOCC1 (centres undefined)	-0.4639
CC(Cn1cncn1)NC(=O)CCOc1ccccc1 (centres undefined)	18.49
Brc1csc(CNCCc2nnc[nH]2)c1	-7.832
COC(=O)Nc1ccc(S(=O)(=O)NC2CCNC2)cc1 (centres undefined)	16.91
CN(CC(=O)N(CC(F)(F)F)C1CCCC1)S(C)(=O)=O	-9.414
NCC1CCCN(C2CCCC2)C1 (centres undefined)	10.16
O=C(Nc1ccncc1)NC1CCS(=O)(=O)C1 (centres undefined)	8.848
NCc1cccc(C(=O)N2CCCC2)c1	20.86

Some entries from above, unchanged:

| SMILES | effect |
|---|---|
| `CC(C)C(NC(=O)c1ccon1)c1nccn1C` (centres undefined) | 0.5355 |
| `N#Cc1c[nH]c(C(=O)NCC2CCCS2)c1` (centres undefined) | 3.413 |
| `CN1CCN(C(=O)CCn2cncn2)CC1` | 5.2 |
| `CC(C)C(C)NC(=O)CS(=O)(=O)Cc1ccccc1` (centres undefined) | 34.33 |

Measurements from “University of Dundee, Small-Polar-MMV Screening Library” (2021), ChEMBL document CHEMBL3988442.